Some of the results follow. Shown are side measurements of this screen, not its main read-out; they come without a call. Most of these compounds were active or inconclusive in the main read-out, so they are no random draw. Potencies come from curve fits of mixed quality, noted in brackets.
Assay: qHTS Assay for Lipid Storage Modulators in Drosophila S3 Cells;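 on cell number change: cells counted by Cell Tracker Red CMTPX staining in the red channel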
Details: BODIPY lipid droplet fluorescence, 18-24 h; for cell number change: measured here: cell count max response, cells fed with added oleic acid
Method in brief: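 Laser-scanning cytometry quantifies lipid droplet accumulation (500–530 nm total intensity; droplet/cell object ratio) in oleic acid-fed (400 uM added) Drosophila S3 cells treated with a concentration series. 20 uM Triacsin C defined 100% inhibition.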

[1] = measured here: lipid fluorescence (Fed channel) AC50, cells fed with added oleic acid
[2] = measured here: cell number channel AC50, cells fed with added oleic acid

| SMILES | cell number change | AC50 [1] | AC50 [2] |
| --- | --- | --- | --- |
| CCOC(=O)C1CCN(C(=O)C2CCN(S(=O)(=O)CC)CC2)CC1 | 5.95% | 0.82 µM [falling, full curve] | – |
| O=C(COc1nsnc1N1CCOCC1)Nc1ccccc1Cl | 11.6% | – | – |
| O=c1c2ccccc2cnn1Cc1ccc(Br)cc1F | -14.5% | 7.08 µM [rising, partial curve] | – |
| O=C(COC(=O)CNC(=O)c1ccc(Cl)cc1Cl)Nc1cccc(S(=O)(=O)N2CCCC2)c1 | -15.9% | 0.92 µM [rising, partial curve] | – |
| CC(C)C(=O)Nc1cccc(C(=O)Nc2cc([N+](=O)[O-])ccc2Cl)c1 | 1.03% | 0.00461 µM [rising, full curve, poor fit] | – |
| COc1ccc(C)cc1S(=O)(=O)N1CCC2(CC1)OCCN2S(=O)(=O)c1ccccc1 | 3.81% | 2.06 µM [rising, partial curve] | 1.3 µM [rising, partial curve, poor fit] |
| CCC(C)C(=O)Nc1nc2ccc(OC)cc2s1 (centres undefined) | 17.3% | – | – |
| Cc1ccc(-c2cc(C(=O)Nc3cc(C)ccc3O)no2)cc1 | 36.5% | – | – |
| COC(=O)c1ccc(C2C(C#N)=C(N)Oc3cc(N)ccc32)cc1 (centres undefined) | 3.45% | 32.6 µM [rising, single point] | – |
| Cc1cccc(NC(=O)C2CCCN(S(=O)(=O)c3ccc(-n4cnnn4)cc3)C2)c1 (centres undefined) | -13.3% | 6.51 µM [falling, single point] | – |
| CCc1nc(NCCN2CCOCC2)c2oc3ccccc3c2n1 | 7.17% | 0.00411 µM [rising, full curve, poor fit] | – |
| COCc1cc(C)nc(SCC(=O)Nc2cc3c(cc2C#N)OCO3)c1C#N | -14% | 0.231 µM [rising, full curve, poor fit] | – |
| Cc1cccc(OCC(=O)NCc2ccc(F)cc2)c1 | 7.66% | – | – |
| O=C(CC1C(=O)NCCN1CC1CCCCC1)NCc1ccc(F)cc1 (centres undefined) | 25.3% | 25.9 µM [rising, partial curve] | – |
| Cc1cnc(NC(=O)CN(C)S(=O)(=O)c2ccc(Cl)cc2)s1 | 82.6% | – | 29.1 µM [rising, single point] |
| CCCNC(=O)c1cc2c3ccccc3n(C)c2s1 | – | 0.58 µM [falling, single point] | – |
| Cc1ccc(S(=O)(=O)N/N=C\c2cc([N+](=O)[O-])ccc2Cl)cc1 | – | 4.61 µM [falling, full curve] | – |
| O=C(CN1CCN(c2ncc(C(F)(F)F)cc2Cl)CC1)N1CCN(c2ncc(C(F)(F)F)cc2Cl)CC1 | 135% | 4.11 µM [rising, single point] | 16.4 µM [rising, partial curve] |
| COc1ccc(CNc2nc3nc(-c4ccccc4)cc(=O)n3[nH]2)cc1OC | -27.3% | – | 0.206 µM [falling, full curve] |

Molecules above with a cyano group (two):

| SMILES | cell number change | AC50 [1] | AC50 [2] |
| --- | --- | --- | --- |
| COC(=O)c1ccc(C2C(C#N)=C(N)Oc3cc(N)ccc32)cc1 (centres undefined) | 3.45% | 32.6 µM [rising, single point] | – |
| COCc1cc(C)nc(SCC(=O)Nc2cc3c(cc2C#N)OCO3)c1C#N | -14% | 0.231 µM [rising, full curve, poor fit] | – |

(continued)

| SMILES | cell number change | AC50 [1] | AC50 [2] |
| --- | --- | --- | --- |
| COC(=O)c1ccc(COc2ccccc2/C=C(\C#N)C(=O)Nc2ccc(C)cc2C)cc1 | -39.2% | 29.1 µM [falling, single point] | 0.651 µM [falling, full curve] |
| CCN(CC)CCCNC(=O)Cn1nc([N+](=O)[O-])c(Cl)c1C | -8.16% | 0.116 µM [falling, full curve, poor fit] | – |
| O=C(Cn1nnc2ccccc2c1=O)NC1CCCCC1 | -6.41% | – | – |
| N#C/C(=C\c1cccc(NC(=O)c2ccccc2Cl)c1)C(=O)NCCc1ccccc1 | 13.6% | – | – |
| CSCCC(NC(=O)c1ccccc1Cl)C(=O)OCC(=O)N1CCCC1=O (centres undefined) | -50% | – | 0.92 µM [falling, full curve] |
| Cc1cccc(N2CCN(c3nnnn3-c3ccccc3)CC2C)c1 (centres undefined) | 31% | 29.1 µM [rising, single point] | 23.1 µM [rising, single point] |
| O=C(Cn1cnc2cc([N+](=O)[O-])ccc2c1=O)NCCc1ccc(Cl)cc1 | -3.86% | – | – |
| COc1ccc(CCn2c(SCC(=O)Nc3cc(C)on3)nc3ccsc3c2=O)cc1OC | 49.4% | 0.184 µM [rising, full curve, poor fit] | 0.291 µM [rising, full curve] |
| CCOC(=O)c1c(-c2ccccc2)oc2ccc(OCC(O)CNCCN(C)C)cc12 (centres undefined) | -49.3% | 29.1 µM [falling, single point] | 20.6 µM [falling, single point] |
| CN(C)S(=O)(=O)c1ccc(/C(O)=C2/C(=O)C(=O)N(Cc3cccnc3)C2c2ccco2)cc1 (centres undefined) | -23.6% | 0.082 µM [falling, full curve, poor fit] | – |
| Cc1ccc(S(=O)(=O)N(C)c2cc(S(=O)(=O)Nc3ccncc3)c(C)cc2C)cc1 | 9.76% | 5.8 µM [rising, full curve, poor fit] | – |
| CC1=C(C(=O)Nc2cccc(C(=O)NC(C)C)c2)SCCO1 | 151% | 0.146 µM [rising, full curve, poor fit] | 0.116 µM [rising, full curve, poor fit] |
| NC(=S)N=Nc1c(O)n(CCCl)c2ccc(Cl)cc12 | 9.54% | – | – |
| CCOC(=O)N1CCN(C(=O)C(C)N(c2ccc(Oc3ccccc3)cc2)S(C)(=O)=O)CC1 (centres undefined) | – | 2.91 µM [rising, partial curve] | 2.31 µM [rising, partial curve] |
| O=c1[nH]c(CN2CCN(C/C=C/c3ccccc3)CC2)nc2ccccc12 | 133% | 6.51 µM [rising, single point] | 14.6 µM [rising, partial curve] |
| Cc1cc(N2C(=O)C(O)=C(C(=O)c3cccs3)C2c2cccc(Br)c2)no1 (centres undefined) | -24.8% | 29.1 µM [falling, single point] | – |
| O=C(CSc1ccccc1)NNC(=O)c1ccccc1O | 30.8% | – | 14.6 µM [rising, partial curve, poor fit] |
| Cc1nc(S(=O)(=O)c2ccc(Cl)cc2)c(NCc2ccccc2)o1 | – | – | 0.184 µM [rising, full curve, poor fit] |
| CC(C)C(=O)Nc1cccc(C(=O)OCC(=O)c2ccc(Cl)cc2Cl)c1 | 40.7% | 29.1 µM [rising, single point] | 32.6 µM [rising, single point] |
